Paper PMC5007451
These are yes or no findings as the source states them, for the method shown. Binding seen in cells or lysates may run through a third protein. Some binding calls cover weakened binding; strength is not graded here. For some assays here: Sequences can lack the tags named with a protein.

By UniProt entry, the sequences of proteins in these tests, tags left out.
UniProt Q9C0D2: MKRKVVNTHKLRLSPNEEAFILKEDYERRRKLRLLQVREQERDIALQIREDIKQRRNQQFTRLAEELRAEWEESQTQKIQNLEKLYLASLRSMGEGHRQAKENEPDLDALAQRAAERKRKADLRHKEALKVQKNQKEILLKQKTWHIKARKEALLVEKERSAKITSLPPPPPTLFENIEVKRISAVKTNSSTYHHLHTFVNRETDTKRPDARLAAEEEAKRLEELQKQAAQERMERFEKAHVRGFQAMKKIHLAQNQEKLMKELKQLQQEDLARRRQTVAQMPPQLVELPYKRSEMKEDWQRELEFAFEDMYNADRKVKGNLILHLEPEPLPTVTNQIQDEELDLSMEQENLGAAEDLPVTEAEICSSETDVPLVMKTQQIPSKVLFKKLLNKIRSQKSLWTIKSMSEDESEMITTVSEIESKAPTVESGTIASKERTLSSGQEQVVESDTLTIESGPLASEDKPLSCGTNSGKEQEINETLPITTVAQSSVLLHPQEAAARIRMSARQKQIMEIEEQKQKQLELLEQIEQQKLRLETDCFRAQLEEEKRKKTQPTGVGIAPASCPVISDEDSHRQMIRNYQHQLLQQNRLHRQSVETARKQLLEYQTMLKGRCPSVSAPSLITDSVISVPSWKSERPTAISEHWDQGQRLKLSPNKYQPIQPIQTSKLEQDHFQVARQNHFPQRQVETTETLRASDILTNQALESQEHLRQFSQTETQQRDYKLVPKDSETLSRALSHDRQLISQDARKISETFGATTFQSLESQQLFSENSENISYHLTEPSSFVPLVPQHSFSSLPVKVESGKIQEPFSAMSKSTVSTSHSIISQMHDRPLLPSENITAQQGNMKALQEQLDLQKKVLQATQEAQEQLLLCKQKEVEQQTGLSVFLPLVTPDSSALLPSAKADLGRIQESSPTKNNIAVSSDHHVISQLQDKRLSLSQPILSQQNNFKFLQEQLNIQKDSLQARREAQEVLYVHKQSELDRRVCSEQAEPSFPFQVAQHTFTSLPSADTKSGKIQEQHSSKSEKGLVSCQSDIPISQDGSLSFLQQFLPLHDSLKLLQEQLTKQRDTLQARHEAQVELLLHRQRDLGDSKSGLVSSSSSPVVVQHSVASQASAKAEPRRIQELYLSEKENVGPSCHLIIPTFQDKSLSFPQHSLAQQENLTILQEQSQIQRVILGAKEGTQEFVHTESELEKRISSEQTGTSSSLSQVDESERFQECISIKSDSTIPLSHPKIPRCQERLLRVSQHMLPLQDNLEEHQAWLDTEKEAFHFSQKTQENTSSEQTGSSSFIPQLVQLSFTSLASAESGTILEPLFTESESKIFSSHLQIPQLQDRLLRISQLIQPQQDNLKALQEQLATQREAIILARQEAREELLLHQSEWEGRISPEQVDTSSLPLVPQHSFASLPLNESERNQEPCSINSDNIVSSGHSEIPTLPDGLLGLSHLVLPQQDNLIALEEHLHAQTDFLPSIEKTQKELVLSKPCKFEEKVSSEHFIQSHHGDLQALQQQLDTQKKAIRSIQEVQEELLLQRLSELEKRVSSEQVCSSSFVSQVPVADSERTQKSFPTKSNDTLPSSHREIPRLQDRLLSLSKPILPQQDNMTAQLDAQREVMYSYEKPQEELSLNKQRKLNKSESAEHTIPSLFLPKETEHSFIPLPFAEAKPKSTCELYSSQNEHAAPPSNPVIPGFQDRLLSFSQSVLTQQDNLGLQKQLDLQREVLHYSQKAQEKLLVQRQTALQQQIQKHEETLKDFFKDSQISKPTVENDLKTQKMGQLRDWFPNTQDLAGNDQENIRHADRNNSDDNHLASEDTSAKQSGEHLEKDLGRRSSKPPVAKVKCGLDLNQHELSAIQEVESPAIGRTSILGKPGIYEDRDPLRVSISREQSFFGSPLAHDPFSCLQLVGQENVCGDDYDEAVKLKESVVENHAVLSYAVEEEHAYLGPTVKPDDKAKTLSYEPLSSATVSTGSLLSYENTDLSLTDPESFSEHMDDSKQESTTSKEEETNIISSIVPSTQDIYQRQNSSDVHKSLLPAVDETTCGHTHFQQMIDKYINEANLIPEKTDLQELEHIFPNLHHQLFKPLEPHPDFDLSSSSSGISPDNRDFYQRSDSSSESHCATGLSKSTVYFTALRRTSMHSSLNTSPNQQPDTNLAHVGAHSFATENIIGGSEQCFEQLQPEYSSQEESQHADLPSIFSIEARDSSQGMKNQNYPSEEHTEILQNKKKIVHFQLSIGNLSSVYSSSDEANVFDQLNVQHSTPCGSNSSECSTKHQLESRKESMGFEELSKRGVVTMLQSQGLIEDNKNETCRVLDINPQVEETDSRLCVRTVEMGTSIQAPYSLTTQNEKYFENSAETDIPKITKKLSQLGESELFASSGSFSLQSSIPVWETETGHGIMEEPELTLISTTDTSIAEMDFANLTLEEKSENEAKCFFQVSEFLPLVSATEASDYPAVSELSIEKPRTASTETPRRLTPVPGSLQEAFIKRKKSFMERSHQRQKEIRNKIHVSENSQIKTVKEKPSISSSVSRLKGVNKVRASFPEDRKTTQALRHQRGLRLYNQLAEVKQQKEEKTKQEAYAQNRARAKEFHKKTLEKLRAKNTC

How the values were obtained:
[1] = biological target: T1, short fragment of Cep192 (aa 1501–1860), Flag-tagged (human) (UniProt Q8TEP8); assay: co-IP; U2OS cells transfected with Flag-Cep192 full length or deletion mutants for 24 h; Flag M2 agarose, 2 h or overnight at 4 °C; lysis buffer 20 mM Tris/HCl pH 7.5, 50 mM NaCl, 1% TritonX-100, 5 mM EGTA, 1 mM DTT, 2 mM MgCl2; blot for endogenous Cep295; the full-length result was also obtained in 293T cells
T1 sequence: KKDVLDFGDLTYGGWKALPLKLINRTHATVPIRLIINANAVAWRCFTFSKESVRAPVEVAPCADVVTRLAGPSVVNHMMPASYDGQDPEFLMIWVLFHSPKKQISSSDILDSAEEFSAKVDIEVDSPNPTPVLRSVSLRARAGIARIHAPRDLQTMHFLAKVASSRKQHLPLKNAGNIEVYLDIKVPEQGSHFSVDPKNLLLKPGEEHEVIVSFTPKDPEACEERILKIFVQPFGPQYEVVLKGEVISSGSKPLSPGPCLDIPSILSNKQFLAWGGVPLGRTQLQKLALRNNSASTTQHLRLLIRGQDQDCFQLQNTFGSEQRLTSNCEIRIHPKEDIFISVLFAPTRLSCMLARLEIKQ

[2] = biological target: Flag-tagged full-length Cep192 (centrosomal protein of 192 kDa) (human) (UniProt Q8TEP8); assay: as above

With “endogenous Cep295 (centrosomal protein of 295 kDa) (from UniProt Q9C0D2 1-2601)” as the substance, how does the binding [1] read?
The binding was “binds”.

And the binding [2]?
The binding was “binds”.
